# Data published in the supplement of paper PMC8728848.
# The list shows a part of the results.
# How the values were obtained:
# Test in all cases: glycan array binding signal (z-score within array); higher = stronger binding
# Conditions in all cases: glycan notation: IUPAC condensed, linker removed
# Gal(b1-2)Gal = target: Gal(b1-2)Gal
# How it was run: (§1)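 Arrays were curated from the Consortium for Functional Glycomics database, 3228 in total, and kept only where the protein sequence was available. Binding is expressed as a within-array Z-score. This score was averaged across arrays of the same protein sequence at different concentrations or buffers and across linkers, and negative values can be read as non-binding.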
# Gal(b1-3)Gal = target: Gal(b1-3)Gal
# How it was run: as §1
# Gal(b1-3)Gal(b1-4)GlcNAc = target: Gal(b1-3)Gal(b1-4)GlcNAc
# How it was run: as §1
# Gal(b1-3)GalNAc = target: Gal(b1-3)GalNAc
# How it was run: as §1
# [1] = target: Gal(b1-3)GalNAc(a1-3)[Fuc(a1-2)]Gal(b1-4)Glc
# How it was run: as §1
# [2] = target: Gal(b1-3)GalNAc(a1-3)[Fuc(a1-2)]Gal(b1-4)GlcNAc
# How it was run: as §1
# Gal(b1-3)GalNAc(b1-3)Gal = target: Gal(b1-3)GalNAc(b1-3)Gal
# How it was run: as §1
# [3] = target: Gal(b1-3)GalNAc(b1-3)Gal(a1-4)Gal(b1-4)Glc
# How it was run: as §1
# [4] = target: Gal(b1-3)GalNAc(b1-4)Gal(b1-4)Glc
# How it was run: as §1
# [5] = target: Gal(b1-3)GalNAc(b1-4)[Neu5Ac(a2-3)]Gal(b1-4)Glc
# How it was run: as §1
# Gal(b1-3)GlcNAc = target: Gal(b1-3)GlcNAc
# How it was run: as §1
# [6] = target: Gal(b1-3)GlcNAc(a1-3)Gal(b1-4)GlcNAc
# How it was run: as §1
# [7] = target: Gal(b1-3)GlcNAc(a1-6)Gal(b1-4)GlcNAc
# How it was run: as §1
# Gal(b1-3)GlcNAc(b1-2)Man = target: Gal(b1-3)GlcNAc(b1-2)Man
# How it was run: as §1
# [8] = target: Gal(b1-3)GlcNAc(b1-2)Man(a1-3)[Gal(b1-3)GlcNAc(b1-2)Man(a1-6)]Man(b1-4)GlcNAc(b1-4)GlcNAc
# How it was run: as §1
# [9] = target: Gal(b1-3)GlcNAc(b1-2)Man(a1-3)[Gal(b1-3)GlcNAc(b1-2)Man(a1-6)]Man(b1-4)GlcNAc(b1-4)[Fuc(a1-6)]GlcNAc
# How it was run: as §1
# [10] = target: Gal(b1-3)GlcNAc(b1-2)Man(a1-3)[GlcNAc(b1-4)][Gal(b1-3)GlcNAc(b1-2)Man(a1-6)]Man(b1-4)GlcNAc(b1-4)GlcNAc
# How it was run: as §1
# [11] = target: Gal(b1-3)GlcNAc(b1-2)[Gal(b1-3)GlcNAc(b1-6)]Man(a1-6)[Gal(b1-3)GlcNAc(b1-2)Man(a1-3)]Man(b1-4)GlcNAc(b1-4)GlcNAc
# How it was run: as §1
# [12] = target: Gal(b1-3)GlcNAc(b1-3)Gal(b1-3)GlcNAc
# How it was run: as §1
# [13] = target: Gal(b1-3)GlcNAc(b1-3)Gal(b1-4)Glc
# How it was run: as §1
# [14] = target: Gal(b1-3)GlcNAc(b1-3)Gal(b1-4)GlcNAc
# How it was run: as §1
# [15] = target: Gal(b1-3)GlcNAc(b1-3)Gal(b1-4)GlcNAc(b1-2)Man(a1-3)[Gal(b1-3)GlcNAc(b1-3)Gal(b1-4)GlcNAc(b1-2)Man(a1-6)]Man(b1-4)GlcNAc(b1-4)GlcNAc
# How it was run: as §1
# [16] = target: Gal(b1-3)GlcNAc(b1-3)Gal(b1-4)GlcNAc(b1-2)[Gal(b1-3)GlcNAc(b1-3)Gal(b1-4)GlcNAc(b1-6)]Man(a1-6)[Gal(b1-3)GlcNAc(b1-3)Gal(b1-4)GlcNAc(b1-2)Man(a1-3)]Man(b1-4)GlcNAc(b1-4)[Fuc(a1-6)]GlcNAc
# How it was run: as §1
# [17] = target: Gal(b1-3)GlcNAc(b1-3)Gal(b1-4)GlcNAc(b1-3)Gal(b1-4)GlcNAc(b1-2)[Gal(b1-3)GlcNAc(b1-3)Gal(b1-4)GlcNAc(b1-3)Gal(b1-4)GlcNAc(b1-6)]Man(a1-6)[Gal(b1-3)GlcNAc(b1-3)Gal(b1-4)GlcNAc(b1-3)Gal(b1-4)GlcNAc(b1-2)Man(a1-3)]Man(b1-4)GlcNAc(b1-4)[Fuc(a1-6)]GlcNAc
# How it was run: as §1
# [18] = target: Gal(b1-3)GlcNAc(b1-3)Gal(b1-4)GlcNAc(b1-6)[Gal(b1-3)GlcNAc(b1-3)]Gal(b1-4)Glc
# How it was run: as §1
# [19] = target: Gal(b1-3)GlcNAc(b1-3)Gal(b1-4)[Fuc(a1-3)]GlcNAc
# How it was run: as §1
# [20] = target: Gal(b1-3)GlcNAc(b1-3)Gal(b1-4)[Fuc(a1-3)]GlcNAc(b1-6)[Gal(b1-3)GlcNAc(b1-3)]Gal(b1-4)Glc
# How it was run: as §1
# [21] = target: Gal(b1-3)GlcNAc(b1-3)GalNAc
# How it was run: as §1
# [22] = target: Gal(b1-3)GlcNAc(b1-6)Gal(b1-4)GlcNAc
# How it was run: as §1
# [23] = target: Gal(b1-3)GlcNAc(b1-6)GalNAc
# How it was run: as §1
# [24] = target: Gal(b1-3)GlcNAc(b1-6)[Gal(b1-3)]GalNAc
# How it was run: as §1
# Gal(b1-3)GlcNAc6S = target: Gal(b1-3)GlcNAc6S
# How it was run: as §1
# [25] = target: Gal(b1-3)[Fuc(a1-4)]GlcNAc
# How it was run: as §1
# [26] = target: Gal(b1-3)[Fuc(a1-4)]GlcNAc(b1-2)Man
# How it was run: as §1
# [27] = target: Gal(b1-3)[Fuc(a1-4)]GlcNAc(b1-2)Man(a1-3)[Gal(b1-3)[Fuc(a1-4)]GlcNAc(b1-2)Man(a1-6)]Man(b1-4)GlcNAc(b1-4)[Fuc(a1-6)]GlcNAc
# How it was run: as §1
# [28] = target: Gal(b1-3)[Fuc(a1-4)]GlcNAc(b1-3)Gal(b1-3)[Fuc(a1-4)]GlcNAc
# How it was run: as §1
# [29] = target: Gal(b1-3)[Fuc(a1-4)]GlcNAc(b1-3)Gal(b1-4)[Fuc(a1-3)]GlcNAc
# How it was run: as §1
# [30] = target: Gal(b1-3)[Fuc(a1-4)]GlcNAc(b1-6)GalNAc
# How it was run: as §1
# [31] = target: Gal(b1-3)[GlcNAc(b1-6)]GalNAc
# How it was run: as §1
# [32] = target: Gal(b1-3)[Neu5Ac(a2-6)]GalNAc
# How it was run: as §1
# [33] = target: Gal(b1-3)[Neu5Ac(a2-6)]GlcNAc(b1-4)Gal(b1-4)Glc
# How it was run: as §1
# [34] = target: Gal(b1-3)[Neu5Ac(b2-6)]GalNAc
# How it was run: as §1
# Gal(b1-4)Gal = target: Gal(b1-4)Gal
# How it was run: as §1
# [35] = target: Gal(b1-4)GalNAc(a1-3)[Fuc(a1-2)]Gal(b1-4)GlcNAc
# How it was run: as §1
# [36] = target: Gal(b1-4)GalNAc(b1-3)[Fuc(a1-2)]Gal(b1-4)GlcNAc
# How it was run: as §1
binder,measurement,setting,value
"MXA PilAct-eGFP (Myxococcus xanthus), Q59589 (protein) MRVSRFNPRNRGFTLIELMIVVAIIGILAAIAIPNFIKFQARSKQSEAKTNLKALYTAQKSFFSEKDRYSDFANEIGFAPERGNRYGYRVSAAAGDCEVRNAADLPVPAAGVPCISNDSFRFGANSAIDDPTPVVARFVPQGAAGWNTTLGVQPTIADCPNCNFFAGARGNADNEATFDDWVIAGFEGSGQVGPCSEAGNVASGTPYNTRNDVACDGAAQ",glycan array binding signal (z-score),Gal(b1-2)Gal,-0.533
same,glycan array binding signal (z-score),Gal(b1-3)Gal,-0.782
same,glycan array binding signal (z-score),Gal(b1-3)Gal(b1-4)GlcNAc,0.335
same,glycan array binding signal (z-score),Gal(b1-3)GalNAc,-0.582
same,glycan array binding signal (z-score),[1],-0.888
same,glycan array binding signal (z-score),[2],-1.12
same,glycan array binding signal (z-score),Gal(b1-3)GalNAc(b1-3)Gal,-0.318
same,glycan array binding signal (z-score),[3],-1.31
same,glycan array binding signal (z-score),[4],-0.52
same,glycan array binding signal (z-score),[5],-0.298
same,glycan array binding signal (z-score),Gal(b1-3)GlcNAc,0.97
same,glycan array binding signal (z-score),[6],-1.01
same,glycan array binding signal (z-score),[7],-1.44
same,glycan array binding signal (z-score),Gal(b1-3)GlcNAc(b1-2)Man,-0.797
same,glycan array binding signal (z-score),[8],1.79
same,glycan array binding signal (z-score),[9],0.709
same,glycan array binding signal (z-score),[10],0.003
same,glycan array binding signal (z-score),[11],-0.515
same,glycan array binding signal (z-score),[12],1.12
same,glycan array binding signal (z-score),[13],-0.12
same,glycan array binding signal (z-score),[14],0.458
same,glycan array binding signal (z-score),[15],1.88
same,glycan array binding signal (z-score),[16],6.11
same,glycan array binding signal (z-score),[17],4.94
same,glycan array binding signal (z-score),[18],0.239
same,glycan array binding signal (z-score),[19],-0.043
same,glycan array binding signal (z-score),[20],-0.452
same,glycan array binding signal (z-score),[21],-0.342
same,glycan array binding signal (z-score),[22],-0.705
same,glycan array binding signal (z-score),[23],0.366
same,glycan array binding signal (z-score),[24],1.55
same,glycan array binding signal (z-score),Gal(b1-3)GlcNAc6S,0.063
same,glycan array binding signal (z-score),[25],-0.56
same,glycan array binding signal (z-score),[26],0.913
same,glycan array binding signal (z-score),[27],-0.259
same,glycan array binding signal (z-score),[28],-2.03
same,glycan array binding signal (z-score),[29],0.781
same,glycan array binding signal (z-score),[30],-1.4
same,glycan array binding signal (z-score),[31],-0.78
same,glycan array binding signal (z-score),[32],-0.062
same,glycan array binding signal (z-score),[33],0.129
same,glycan array binding signal (z-score),[34],-1.02
same,glycan array binding signal (z-score),Gal(b1-4)Gal,-1.28
same,glycan array binding signal (z-score),[35],0.225
same,glycan array binding signal (z-score),[36],-0.793

# Reformatted: results already given.
binder	measurement	setting	value
MXA PilAct-eGFP (Myxococcus xanthus), Q59589 (protein) MRVSRFNPRNRGFTLIELMIVVAIIGILAAIAIPNFIKFQARSKQSEAKTNLKALYTAQKSFFSEKDRYSDFANEIGFAPERGNRYGYRVSAAAGDCEVRNAADLPVPAAGVPCISNDSFRFGANSAIDDPTPVVARFVPQGAAGWNTTLGVQPTIADCPNCNFFAGARGNADNEATFDDWVIAGFEGSGQVGPCSEAGNVASGTPYNTRNDVACDGAAQ	glycan array binding signal (z-score)	[9]	0.709
same	glycan array binding signal (z-score)	[30]	-1.4
